# Test results: PubChem BioAssay AID270 (DTP/NCI, 2004)
# The list shows only some results of the screen, not a fair sample: it gathers tests that were run many times, whatever their T/C, doses with no T/C, and many T/C values between a quarter and a half above the control. Other doses and runs of a compound stand elsewhere. T/C gives the treated animals as a percentage of the vehicle group. Some T/C values are followed by the survivors on the day toxicity was checked, most often the fifth; where none is given, no animal had died by that day. Schedule codes are those of the source, read here as Q, the interval in days (D) or hours (H), X, the number of doses. Some entries give survivors of the animals treated and no T/C: the source files T/C as zero there, which appears to mark a toxic dose or a test without result, not a measured value. Some survivor counts are full or nearly so, which does not show that the dose was tolerated: survival well below the control is almost never listed, so the zero probably covers shortened survival too. Survivors were counted at the toxicity check, usually on the fifth day, unless a day is given; later deaths do not show. Some entries were tested several times; the results are listed from low to high. Where survival is the endpoint, this PubChem deposit counts one and a half times the control or more as active, and values a quarter to a half above the control carry no call in these data; other NCI protocols may use other cut-offs. Signs of the kind (2×) say how often a value occurs here.
# System: BDF1 mice, s.c. Lewis lung carcinoma, T/C %
# Experiment: NCI In Vivo Anticancer Drug Screen. Data for tumor model Lewis Lung Carcinoma (subcutaneous) in B6D2F1 (BDF1) mice
# Method in brief: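 First, mice carry a transplantable tumor. Next, groups receive either compound or vehicle. Finally, survival or tumor dimensions in the dosed animals are divided by the corresponding control figure.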
# [1] = T/C endpoint: median survival time, dose: 400.0 mg/kg/injection, schedule: Q01DX009 (ip), vehicle: saline, higher T/C = longer survival
# [2] = T/C endpoint: median survival time, dose: 800.0 mg/kg/injection, schedule: Q01DX009 (ip), vehicle: saline, higher T/C = longer survival
# [3] = T/C endpoint: mean tumor weight, dose: 1.0 mg/kg/injection, schedule: Q01DX011 (ip), vehicle: saline, higher T/C = larger tumour
# [4] = T/C endpoint: median survival time, dose: 0.25 mg/kg/injection, schedule: Q01DX009 (ip), vehicle: saline, higher T/C = longer survival
# [5] = T/C endpoint: median survival time, dose: 0.5 mg/kg/injection, schedule: Q01DX009 (ip), vehicle: saline, higher T/C = longer survival
compound,measurement,setting,value
Nc1n[nH]c(N)n1,T/C,"T/C endpoint: median survival time, dose: 100.0 mg/kg/injection, schedule: Q01DX009 (ip), vehicle: saline, higher T/C = longer survival","100 (2×), 108, 121 % of control"
same,T/C,"T/C endpoint: median survival time, dose: 200.0 mg/kg/injection, schedule: Q01DX009 (ip), vehicle: saline, higher T/C = longer survival","96, 127, 130, 139 % of control"
same,T/C,[1],"114, 120, 130, 157 % of control"
same,T/C,[2],"114, 154, 155 % of control"
same,survivor count,[2],7 of 10
NC(=S)c1cn(C2OC(CO)C(O)C2O)c2ncnc(N)c12 (stereo unspecified),survivor count,"T/C endpoint: median survival time, dose: 1.25 mg/kg/injection, schedule: Q01DX009 (ip), vehicle: saline with Tween-80, higher T/C = longer survival",10 of 10
same,survivor count,"T/C endpoint: median survival time, dose: 10.0 mg/kg/injection, schedule: Q01DX009 (ip), vehicle: saline with Tween-80, higher T/C = longer survival",5 of 10
C1CN1c1nc(N2CC2)nc(N2CC2)n1,survivor count,[3],1 of 10 and 4 of 10
same,T/C,"T/C endpoint: median survival time, dose: 0.12 mg/kg/injection, schedule: Q01DX009 (ip), vehicle: saline with Tween-80, higher T/C = longer survival",132 % of control
same,T/C,"T/C endpoint: median survival time, dose: 0.13 mg/kg/injection, schedule: Q01DX009 (ip), vehicle: saline, higher T/C = longer survival",128 and 143 % of control
same,T/C,"T/C endpoint: median survival time, dose: 0.2 mg/kg/injection, schedule: Q01DX009 (ip), vehicle: saline, higher T/C = longer survival",136 % of control
same,T/C,"T/C endpoint: median survival time, dose: 0.25 mg/kg/injection, schedule: Q01DX009 (ip), vehicle: saline with Tween-80, higher T/C = longer survival",136 % of control
same,T/C,[4],125 and 147 % of control
same,survivor count,[4],9 of 10 and 10 of 10
same,T/C,[5],89 [9 of 10 alive] and 103 % of control
same,survivor count,[5],8 of 10 and 9 of 10
same,survivor count,"T/C endpoint: median survival time, dose: 0.8 mg/kg/injection, schedule: Q01DX009 (ip), vehicle: saline, higher T/C = longer survival",10 of 10
same,survivor count,"T/C endpoint: median survival time, dose: 1.0 mg/kg/injection, schedule: Q01DX009 (ip), vehicle: saline with Tween-80, higher T/C = longer survival",10 of 10
same,survivor count,"T/C endpoint: median survival time, dose: 1.0 mg/kg/injection, schedule: Q01DX009 (ip), vehicle: saline, higher T/C = longer survival","6 of 10, 9 of 10, 10 of 10, 9 of 9"
same,survivor count,"T/C endpoint: median survival time, dose: 2.0 mg/kg/injection, schedule: Q01DX009 (ip), vehicle: saline, higher T/C = longer survival",0 of 10
same,survivor count,"T/C endpoint: median survival time, dose: 2.0 mg/kg/injection, schedule: Q08DX002 (ip), vehicle: saline, higher T/C = longer survival",8 of 9 and 10 of 10
same,survivor count,"T/C endpoint: median survival time, dose: 4.0 mg/kg/injection, schedule: Q08DX002 (ip), vehicle: saline with Tween-80, higher T/C = longer survival",9 of 10
same,survivor count,"T/C endpoint: median survival time, dose: 4.0 mg/kg/injection, schedule: Q08DX002 (ip), vehicle: saline, higher T/C = longer survival",7 of 10 and 10 of 10
same,T/C,"T/C endpoint: median survival time, dose: 125.0 micrograms/kg/injection, schedule: Q01DX009 (ip), vehicle: saline, higher T/C = longer survival",127 % of control
same,survivor count,"T/C endpoint: median survival time, dose: 1000.0 micrograms/kg/injection, schedule: Q01DX009 (ip), vehicle: saline, higher T/C = longer survival",10 of 10
same,survivor count,"T/C endpoint: median tumor weight (est.), dose: 4.0 mg/kg/injection, schedule: Q08DX002 (ip), vehicle: saline with Tween-80, higher T/C = larger tumour",3 of 10
CN(N=O)C(=O)NC1CCOCC1,survivor count,"T/C endpoint: median survival time, dose: 560.0 mg/kg/injection, schedule: Q01DX001 (ip), vehicle: saline with Tween-80, higher T/C = longer survival",7 of 7 on day 11
CCN(CC)C(=S)S.[Te],survivor count,"T/C endpoint: mean tumor weight, dose: 400.0 mg/kg/injection, schedule: Q01DX011 (ip), vehicle: carboxymethylcellulose (CMC), higher T/C = larger tumour",0 of 6
CC[C@@H](C(=O)[C@@H](C)[C@@H](O)[C@H](C)CCc1ccc(C)c(O)c1C(=O)O)[C@H]1O[C@](CC)([C@H]2CC[C@](O)(CC)[C@H](C)O2)C[C@@H]1C,survivor count,"T/C endpoint: median survival time, dose: 12.5 mg/kg/injection, schedule: Q01DX009 (ip), vehicle: Klucel (hydroxypropylcellulose) (HPC), higher T/C = longer survival",10 of 10
same,survivor count,"T/C endpoint: median survival time, dose: 50.0 mg/kg/injection, schedule: Q01DX009 (ip), vehicle: Klucel (hydroxypropylcellulose) (HPC), higher T/C = longer survival",9 of 10
same,survivor count,"T/C endpoint: median survival time, dose: 100.0 mg/kg/injection, schedule: Q01DX009 (ip), vehicle: Klucel (hydroxypropylcellulose) (HPC), higher T/C = longer survival",5 of 10
C[C@]12CC[C@H](OC3OC(CO)C(O)C(O)C3O)C[C@H]1CC[C@@H]1[C@@H]2CC[C@]2(C)[C@@H](C3=CCOC3=O)CC[C@]12O (stereo partly specified),survivor count,[3],3 of 6
same,survivor count,"T/C endpoint: mean tumor weight, dose: 2.0 mg/kg/injection, schedule: Q01DX011 (ip), vehicle: carboxymethylcellulose (CMC), higher T/C = larger tumour",0 of 6
CC(=O)OCC1=CC2OC(=O)C3=COC(OC4OC(CO)C(O)C(O)C4O)C1C32 (stereo unspecified),T/C,"T/C endpoint: mean tumor weight, dose: 220.0 mg/kg/injection, schedule: Q01DX011 (ip), vehicle: carboxymethylcellulose (CMC), evaluated on day 12, higher T/C = larger tumour",134 % of control [5 of 6 alive]
same,survivor count,"T/C endpoint: mean tumor weight, dose: 330.0 mg/kg/injection, schedule: Q01DX011 (ip), vehicle: carboxymethylcellulose (CMC), higher T/C = larger tumour",3 of 6
C=C(C(=O)O)C(=O)O,survivor count,[1],1 of 10
